PMC9241938
For part of these data: Weaker means in comparison with the reference protein, sequence or condition of that experiment. Protein sequences can lack the tags named with them. For part of these data: The exact form of at least one protein or probe is not confirmed. For part of these data: At least one result comes from cells or an extract, where the contact may be indirect. For part of these data: At least one verdict rests on a figure or table, not on a statement of the authors.

Legend:
[1] = target: T1, cyAbrB2 (Synechocystis sp. PCC 6803) (UniProt Q55432); test: EMSA; conditions: value only in figure, EMSA: 12 mM HEPES, 4 mM Tris, 12 mM KCl, 1 mM EDTA, 1 mM EGTA, 12% glycerol, 1 ug poly(dIdC), 3% agarose, 0.5x TBE, pH 8.2 or 5 tested, recombinant protein, residues 1-129, protein details: N-terminal 6xHis, label: Cy3 on 5' end of reverse strand
T1 sequence (looked up): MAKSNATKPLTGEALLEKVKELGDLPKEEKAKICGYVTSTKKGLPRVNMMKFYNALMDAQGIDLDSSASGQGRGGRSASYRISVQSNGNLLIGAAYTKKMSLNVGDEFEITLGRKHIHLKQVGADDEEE

[2] = target: T2, HU (Synechocystis sp. PCC 6803) (UniProt P73418); test: pull-down/MS; conditions: protein in an extract, label: biotin on 5' end of reverse strand
T2 sequence (looked up, limits assumed): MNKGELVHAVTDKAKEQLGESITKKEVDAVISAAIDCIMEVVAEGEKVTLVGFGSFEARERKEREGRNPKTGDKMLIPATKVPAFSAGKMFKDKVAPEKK

[3] = target: T3, cyAbrB1 (native) (Synechocystis sp. PCC 6803) (UniProt P74426); test: pull-down/MS; conditions: enriched versus 5'UTR; protein in an extract; label: biotin on 5' end of reverse strand
T3 sequence (looked up, limits assumed): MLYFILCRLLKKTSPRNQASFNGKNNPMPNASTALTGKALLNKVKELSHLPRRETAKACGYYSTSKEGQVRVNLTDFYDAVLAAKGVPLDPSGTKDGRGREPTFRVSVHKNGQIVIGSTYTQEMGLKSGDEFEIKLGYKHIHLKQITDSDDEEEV

[4] = target: T4, cyAbrB2 (native) (Synechocystis sp. PCC 6803) (UniProt Q55432); test: pull-down/MS; conditions: enriched versus 5'UTR; protein in an extract; label: biotin on 5' end of reverse strand
T4 sequence (looked up, limits assumed): T1 sequence (looked up)

## AAGAGGAAAGATCAGGGGGCAGGAAAATAAATTACCTAATACCTAGTCCTGGTTGATAAAACCAGAGGCAGAAAACCTCCCCGTTTTCTCAAACTTGCCCAAAAGACAACTGTTGAGTTTCCCCCATTGGGACGGAGGTTATG (double strand) [atpT 5'UTR]
[1]; shift only at high protein (2.2 ug)
  binding result: binds more weakly

## AAGAGGAAAGATCAGGGGGCAGGAAAATAAATTACCTAATACCTAGTCCTGGTTGATAAAACCAGAGGCAGAAAACCTCCCCGTTTTCTCAAACTTGCCCAAAAGACAACTGTTGAGTTTCCCCCATTGGGACGGAGGTTATG (double strand) [biotinylated atpT 5'UTR]
[2]; enriched versus PatpT66-5'UTR
  binding result: binds

## TTTGCCCAATTTGACAATATATTAAGAAATCCTCATCTAACCTGTTTTTCATTGGATAATTAAAACAAGAGGAAAGATCAGGGGGCAGGAAAATAAATTACCTAATACCTAGTCCTGGTTGATAAAACCAGAGGCAGAAAACCTCCCCGTTTTCTCAAACTTGCCCAAAAGACAACTGTTGAGTTTCCCCCATTGGGACGGAGGTTATG (double strand) [PatpT66-5'UTR]
[1]
  binding result: binds

## TTTGCCCAATTTGACAATATATTAAGAAATCCTCATCTAACCTGTTTTTCATTGGATAATTAAAACAAGAGGAAAGATCAGGGGGCAGGAAAATAAATTACCTAATACCTAGTCCTGGTTGATAAAACCAGAGGCAGAAAACCTCCCCGTTTTCTCAAACTTGCCCAAAAGACAACTGTTGAGTTTCCCCCATTGGGACGGAGGTTATG (double strand) [biotinylated PatpT66-5'UTR]
[2]; less enriched than on 5'UTR
  binding result: binds more weakly
[3]
  binding result: binds
[4]
  binding result: binds
